Measured values: the supplement of paper PMC10849652
This is one part of the list.

Protein sequences, listed by entry. Tags and fused reporters are not part of them. Lines headed by an entry give the natural chain unless they say otherwise; changes in a name come on top.
UniProt Q9P2T1: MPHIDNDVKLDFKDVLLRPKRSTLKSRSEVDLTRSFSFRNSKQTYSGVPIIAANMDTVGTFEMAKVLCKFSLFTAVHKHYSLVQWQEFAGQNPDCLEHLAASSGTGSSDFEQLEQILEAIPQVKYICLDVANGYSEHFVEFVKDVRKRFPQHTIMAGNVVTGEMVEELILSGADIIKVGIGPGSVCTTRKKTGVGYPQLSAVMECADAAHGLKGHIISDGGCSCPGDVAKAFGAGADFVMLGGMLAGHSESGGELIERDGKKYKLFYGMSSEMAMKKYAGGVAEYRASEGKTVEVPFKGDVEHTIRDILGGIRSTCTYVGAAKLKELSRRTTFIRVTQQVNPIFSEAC
UniProt P36959: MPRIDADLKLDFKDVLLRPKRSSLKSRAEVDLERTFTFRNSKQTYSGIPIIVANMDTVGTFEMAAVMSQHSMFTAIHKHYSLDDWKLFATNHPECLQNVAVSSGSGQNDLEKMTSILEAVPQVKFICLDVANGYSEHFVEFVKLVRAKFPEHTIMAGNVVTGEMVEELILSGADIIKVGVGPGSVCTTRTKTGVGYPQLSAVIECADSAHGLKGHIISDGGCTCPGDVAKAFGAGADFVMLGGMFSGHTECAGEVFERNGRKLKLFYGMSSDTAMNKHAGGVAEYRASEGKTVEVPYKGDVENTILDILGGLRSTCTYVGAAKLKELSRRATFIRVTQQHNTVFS
UniProt Q7Z5G4, whole entry, looked up: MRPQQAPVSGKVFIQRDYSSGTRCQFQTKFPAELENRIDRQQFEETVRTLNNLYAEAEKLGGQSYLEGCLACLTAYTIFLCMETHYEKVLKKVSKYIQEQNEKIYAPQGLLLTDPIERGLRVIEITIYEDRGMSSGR
UniProt Q9Y692: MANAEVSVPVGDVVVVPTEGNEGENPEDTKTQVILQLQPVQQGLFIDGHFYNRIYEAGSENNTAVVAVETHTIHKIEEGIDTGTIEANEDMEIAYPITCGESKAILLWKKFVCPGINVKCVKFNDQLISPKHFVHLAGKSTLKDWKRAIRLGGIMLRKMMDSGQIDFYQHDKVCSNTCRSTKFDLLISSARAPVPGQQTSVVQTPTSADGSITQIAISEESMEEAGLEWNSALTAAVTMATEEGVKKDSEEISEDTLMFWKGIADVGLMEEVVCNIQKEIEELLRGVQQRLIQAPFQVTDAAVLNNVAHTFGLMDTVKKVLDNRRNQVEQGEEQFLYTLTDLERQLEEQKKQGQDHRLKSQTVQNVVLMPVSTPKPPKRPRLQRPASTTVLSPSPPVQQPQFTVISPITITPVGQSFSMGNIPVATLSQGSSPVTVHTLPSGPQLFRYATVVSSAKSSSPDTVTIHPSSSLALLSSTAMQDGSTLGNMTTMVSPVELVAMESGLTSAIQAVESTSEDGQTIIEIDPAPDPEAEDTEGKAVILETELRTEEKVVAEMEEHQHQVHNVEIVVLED
UniProt Q9BRT9, whole entry, looked up: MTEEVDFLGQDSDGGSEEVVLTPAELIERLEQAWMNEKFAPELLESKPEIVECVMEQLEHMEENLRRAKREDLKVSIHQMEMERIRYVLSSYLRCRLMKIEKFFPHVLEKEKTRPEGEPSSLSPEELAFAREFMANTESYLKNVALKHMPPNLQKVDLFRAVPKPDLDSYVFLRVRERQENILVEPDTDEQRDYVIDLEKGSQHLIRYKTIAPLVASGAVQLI
UniProt Q5T3I0: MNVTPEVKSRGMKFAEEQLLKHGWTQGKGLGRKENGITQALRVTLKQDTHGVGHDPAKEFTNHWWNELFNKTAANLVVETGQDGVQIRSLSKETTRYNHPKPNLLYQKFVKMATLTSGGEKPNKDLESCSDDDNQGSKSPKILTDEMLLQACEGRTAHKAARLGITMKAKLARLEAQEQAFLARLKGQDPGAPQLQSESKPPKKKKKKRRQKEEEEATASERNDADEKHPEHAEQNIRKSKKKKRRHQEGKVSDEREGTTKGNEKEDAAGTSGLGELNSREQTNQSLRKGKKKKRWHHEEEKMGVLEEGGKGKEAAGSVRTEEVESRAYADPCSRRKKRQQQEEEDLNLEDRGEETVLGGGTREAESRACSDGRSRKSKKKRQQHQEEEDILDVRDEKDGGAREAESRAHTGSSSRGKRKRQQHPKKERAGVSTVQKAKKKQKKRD
UniProt Q99795: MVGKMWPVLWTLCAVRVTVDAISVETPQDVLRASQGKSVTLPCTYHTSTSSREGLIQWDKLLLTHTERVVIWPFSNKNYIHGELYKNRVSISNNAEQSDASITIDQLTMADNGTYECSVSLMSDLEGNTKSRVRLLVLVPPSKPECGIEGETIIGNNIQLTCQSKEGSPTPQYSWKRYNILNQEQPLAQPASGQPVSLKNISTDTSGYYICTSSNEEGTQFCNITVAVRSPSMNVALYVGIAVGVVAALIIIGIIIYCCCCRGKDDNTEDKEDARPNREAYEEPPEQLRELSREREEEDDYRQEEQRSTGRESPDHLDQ
UniProt P08754, whole entry, looked up: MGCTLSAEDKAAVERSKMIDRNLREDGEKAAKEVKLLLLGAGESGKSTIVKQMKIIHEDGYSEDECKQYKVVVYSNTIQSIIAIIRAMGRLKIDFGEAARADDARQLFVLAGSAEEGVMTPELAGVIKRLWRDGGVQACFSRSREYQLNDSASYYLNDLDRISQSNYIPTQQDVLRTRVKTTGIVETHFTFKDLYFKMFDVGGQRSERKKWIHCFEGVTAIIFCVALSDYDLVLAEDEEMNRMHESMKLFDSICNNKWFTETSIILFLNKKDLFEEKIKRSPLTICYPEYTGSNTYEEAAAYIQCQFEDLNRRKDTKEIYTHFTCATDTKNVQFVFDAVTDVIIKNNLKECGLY
UniProt P63218: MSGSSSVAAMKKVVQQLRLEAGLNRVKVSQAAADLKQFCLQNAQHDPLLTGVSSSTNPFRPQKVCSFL
UniProt Q04760: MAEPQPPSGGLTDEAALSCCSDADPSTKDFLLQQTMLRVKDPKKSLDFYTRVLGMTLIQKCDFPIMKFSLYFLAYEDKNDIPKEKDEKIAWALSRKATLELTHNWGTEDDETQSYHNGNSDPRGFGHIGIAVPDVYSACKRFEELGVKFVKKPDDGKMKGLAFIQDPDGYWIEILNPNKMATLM
UniProt Q9HCN4, whole entry, looked up: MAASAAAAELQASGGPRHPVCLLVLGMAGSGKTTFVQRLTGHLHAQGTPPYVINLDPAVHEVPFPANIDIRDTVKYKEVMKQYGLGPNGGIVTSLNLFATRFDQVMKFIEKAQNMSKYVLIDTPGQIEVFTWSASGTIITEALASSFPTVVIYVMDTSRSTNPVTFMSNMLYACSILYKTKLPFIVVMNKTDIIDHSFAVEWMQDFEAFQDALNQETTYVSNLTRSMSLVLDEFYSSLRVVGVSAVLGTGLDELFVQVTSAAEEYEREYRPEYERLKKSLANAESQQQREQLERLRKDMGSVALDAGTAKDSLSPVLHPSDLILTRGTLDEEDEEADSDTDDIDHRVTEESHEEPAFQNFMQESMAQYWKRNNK
UniProt Q8N954: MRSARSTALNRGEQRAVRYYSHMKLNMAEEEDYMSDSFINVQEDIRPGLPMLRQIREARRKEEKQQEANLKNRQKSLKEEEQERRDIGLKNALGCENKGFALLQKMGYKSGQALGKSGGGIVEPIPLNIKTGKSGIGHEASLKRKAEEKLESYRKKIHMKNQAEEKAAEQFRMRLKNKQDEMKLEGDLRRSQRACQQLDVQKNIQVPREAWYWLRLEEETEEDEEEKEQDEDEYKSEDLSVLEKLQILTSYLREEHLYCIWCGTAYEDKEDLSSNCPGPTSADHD
UniProt P16278: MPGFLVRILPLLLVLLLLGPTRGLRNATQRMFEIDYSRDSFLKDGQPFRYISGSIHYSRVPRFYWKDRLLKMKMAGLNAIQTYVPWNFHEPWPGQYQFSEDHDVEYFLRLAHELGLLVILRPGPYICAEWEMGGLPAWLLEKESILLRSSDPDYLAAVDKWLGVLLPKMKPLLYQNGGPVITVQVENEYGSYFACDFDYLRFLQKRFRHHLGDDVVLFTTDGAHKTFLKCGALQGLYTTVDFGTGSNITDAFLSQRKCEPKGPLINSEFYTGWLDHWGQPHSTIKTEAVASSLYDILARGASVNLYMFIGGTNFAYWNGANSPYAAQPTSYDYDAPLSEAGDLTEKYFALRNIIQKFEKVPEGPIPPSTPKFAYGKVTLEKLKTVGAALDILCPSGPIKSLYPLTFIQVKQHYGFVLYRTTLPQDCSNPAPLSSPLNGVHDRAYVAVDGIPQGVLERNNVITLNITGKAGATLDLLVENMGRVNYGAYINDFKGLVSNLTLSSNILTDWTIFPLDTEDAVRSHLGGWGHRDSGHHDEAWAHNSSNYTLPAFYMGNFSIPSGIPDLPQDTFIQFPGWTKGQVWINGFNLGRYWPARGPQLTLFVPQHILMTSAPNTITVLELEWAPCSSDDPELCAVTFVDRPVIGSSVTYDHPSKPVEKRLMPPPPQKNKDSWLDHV
UniProt Q3T8J9: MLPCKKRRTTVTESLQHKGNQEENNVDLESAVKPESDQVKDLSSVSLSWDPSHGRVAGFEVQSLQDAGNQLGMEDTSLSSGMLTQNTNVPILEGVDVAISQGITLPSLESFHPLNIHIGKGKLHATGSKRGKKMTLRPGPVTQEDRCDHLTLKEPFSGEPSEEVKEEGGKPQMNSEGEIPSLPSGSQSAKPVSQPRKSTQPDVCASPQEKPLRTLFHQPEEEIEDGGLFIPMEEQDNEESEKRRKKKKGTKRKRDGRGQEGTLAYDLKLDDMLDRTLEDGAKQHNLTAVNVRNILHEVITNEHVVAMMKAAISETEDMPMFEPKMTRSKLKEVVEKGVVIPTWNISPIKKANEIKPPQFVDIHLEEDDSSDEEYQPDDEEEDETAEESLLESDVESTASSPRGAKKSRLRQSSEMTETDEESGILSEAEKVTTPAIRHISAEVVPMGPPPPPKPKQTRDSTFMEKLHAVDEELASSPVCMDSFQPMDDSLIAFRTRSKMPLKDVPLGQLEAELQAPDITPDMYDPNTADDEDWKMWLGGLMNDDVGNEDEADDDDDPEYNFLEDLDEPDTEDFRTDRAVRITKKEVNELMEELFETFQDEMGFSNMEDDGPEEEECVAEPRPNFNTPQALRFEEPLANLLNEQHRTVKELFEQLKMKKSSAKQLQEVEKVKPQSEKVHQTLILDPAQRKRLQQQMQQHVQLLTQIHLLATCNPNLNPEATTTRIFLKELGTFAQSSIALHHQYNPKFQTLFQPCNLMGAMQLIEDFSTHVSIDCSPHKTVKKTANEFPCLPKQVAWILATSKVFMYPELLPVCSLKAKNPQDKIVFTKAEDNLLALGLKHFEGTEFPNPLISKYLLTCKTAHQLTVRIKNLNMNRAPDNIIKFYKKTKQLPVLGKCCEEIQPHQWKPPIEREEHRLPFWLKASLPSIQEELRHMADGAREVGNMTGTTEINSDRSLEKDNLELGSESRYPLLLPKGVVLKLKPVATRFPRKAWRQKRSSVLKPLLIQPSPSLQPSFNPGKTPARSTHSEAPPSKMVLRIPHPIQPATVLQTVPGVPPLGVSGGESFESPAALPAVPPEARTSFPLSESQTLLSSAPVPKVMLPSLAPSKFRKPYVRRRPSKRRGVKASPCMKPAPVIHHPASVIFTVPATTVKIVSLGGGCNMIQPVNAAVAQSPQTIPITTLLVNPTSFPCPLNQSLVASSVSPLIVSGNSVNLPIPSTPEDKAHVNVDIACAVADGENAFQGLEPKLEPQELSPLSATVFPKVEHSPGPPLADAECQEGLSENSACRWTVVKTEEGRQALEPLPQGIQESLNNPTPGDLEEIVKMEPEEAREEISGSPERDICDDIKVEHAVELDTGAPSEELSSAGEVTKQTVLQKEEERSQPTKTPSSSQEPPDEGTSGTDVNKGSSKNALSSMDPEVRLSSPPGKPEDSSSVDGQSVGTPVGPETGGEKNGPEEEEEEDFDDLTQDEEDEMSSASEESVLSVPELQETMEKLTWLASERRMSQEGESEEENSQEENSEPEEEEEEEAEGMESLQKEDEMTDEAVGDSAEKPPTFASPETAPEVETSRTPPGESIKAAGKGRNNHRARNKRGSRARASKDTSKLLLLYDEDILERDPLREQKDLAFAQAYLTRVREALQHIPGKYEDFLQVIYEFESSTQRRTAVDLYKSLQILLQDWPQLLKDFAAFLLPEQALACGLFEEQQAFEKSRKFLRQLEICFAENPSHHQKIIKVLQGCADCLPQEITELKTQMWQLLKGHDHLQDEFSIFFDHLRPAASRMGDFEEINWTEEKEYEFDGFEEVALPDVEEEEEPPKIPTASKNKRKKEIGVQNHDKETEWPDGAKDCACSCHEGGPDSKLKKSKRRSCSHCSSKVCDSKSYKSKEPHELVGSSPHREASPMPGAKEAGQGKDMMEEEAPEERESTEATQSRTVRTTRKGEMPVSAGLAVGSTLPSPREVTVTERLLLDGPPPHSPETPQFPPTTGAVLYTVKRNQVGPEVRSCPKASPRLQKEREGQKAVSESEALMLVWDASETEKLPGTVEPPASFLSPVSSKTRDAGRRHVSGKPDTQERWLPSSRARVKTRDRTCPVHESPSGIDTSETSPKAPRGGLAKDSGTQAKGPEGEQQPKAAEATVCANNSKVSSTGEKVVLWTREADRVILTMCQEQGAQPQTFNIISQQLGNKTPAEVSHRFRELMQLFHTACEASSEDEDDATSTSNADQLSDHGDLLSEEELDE

Experiments:
Test in all cases: log2 fold change, soluble protein after heating vs DMSO (PISA); higher = thermal stabilisation; K562 lysate, 10 uM; active = over 0.2 and 3.5 SD of the protein, either way, in both replicates (recomputed)
erlotinib = compound: C#Cc1cccc(Nc2ncnc3cc(OCCOC)c(OCCOC)cc23)c1 [erlotinib]
Outline: (§1)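 Log-two fold change in thermal stability relative to solvent controls is reported from duplicates. For each sample, crude K562 extract from dounce-homogenised pellets in PBS pH 7.4 with 1 mM MgCl2, at 1 mg/mL protein, was treated with 10 μM compound for 30 min. Aliquots heated for 3 min across 48°C-58°C were pooled, brought to 0.5% NP-40 at 4°C and cleared at 21,000xg for 90 min. The supernatant was quantified by TMTpro 16plex LC-MS/MS with channel sums equalised.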

[1] = compound: C/C(=N\NC(=O)C1=CC(=CC=C1)S(=O)(=O)N2CCOCC2)/C3=C(C=CC(=C3)Cl)O
Outline: as §1

[2] = compound: C1=CC(=CC=C1C2=NC3=C(N2)C=C(C=C3)C(=O)N)OC4=CC=C(C=C4)Cl
Outline: as §1

[3] = compound: C1=CC2=C(C=CC(=C2)/C=C\3/C(=O)NC(=NCC4=CC=CS4)S3)N=C1
Outline: as §1

[4] = compound: C1=CC2=NC=CN=C2C=C1/C=C/3\C(=O)NC(=O)S3
Outline: as §1

[5] = compound: C1=CC=C(C=C1)C2=NC(=C(N2)C3=CC=NC=C3)C4=CC(=C(C=C4)Cl)O
Outline: as §1

[6] = compound: C1=CC=C2C(=C1)C3=NNC4=CC=CC(=C43)C2=O
Outline: as §1

[7] = compound: C1CCN(C1)C(=O)NC2=CC=CC(=C2)NC3=NC=C(C(=N3)NCCC4=CN=CN4)Br
Outline: as §1

[8] = compound: C1CN(CCC1(CC2=CC=C(C=C2)Cl)N)C3=NC=NC4=C3C=CN4
Outline: as §1

IRAK-1-4 Inhibitor I = compound: C1COCCN1CCN2C3=CC=CC=C3N=C2NC(=O)C4=CC(=CC=C4)[N+](=O)[O-] [IRAK-1-4 Inhibitor I]
Outline: as §1

Measured: log2 fold change

GORAB (UniProt Q5T7V8)
inactive: erlotinib -0.002 | [1] 0.167 | [2] 0.038 | [3] 0.012 | [4] -0.048 | [5] 0.049 | [6] -0.064 | [7] -0.071 | [8] 0.027 | IRAK-1-4 Inhibitor I 0.014

GMPR2 isoform 2 (UniProt Q9P2T1)
inactive: erlotinib 0.005 | [1] 0.001 | [2] 0.016 | [3] 0.002 | [4] 0.001 | [5] -0.013 | [6] -0.012 | [7] -0.016 | [8] 0.008 | IRAK-1-4 Inhibitor I -0.022

GMIP (UniProt Q9P107)
inactive: erlotinib 0.014 | [1] 0.019 | [2] -0.02 | [3] -0.029 | [4] 0.009 | [5] 0.068 | [6] 0.03 | [7] -0.063 | [8] 0.019 | IRAK-1-4 Inhibitor I 0.025

GIGYF2 (UniProt Q6Y7W6)
inactive: erlotinib -0.011 | [1] -0.033 | [2] -0.024 | [3] -0.016 | [4] 0.018 | [5] 0.005 | [6] -0.005 | [7] 0.006 | [8] -0.005 | IRAK-1-4 Inhibitor I 0.002

GGCX (UniProt P38435)
inactive: erlotinib 0.001 | [1] -0.064 | [2] 0.015 | [3] -0.061 | [4] -0.042 | [5] 0.093 | [6] -0.096 | [7] 0.027 | [8] 0.081 | IRAK-1-4 Inhibitor I -0.026

GOLT1B (UniProt Q9Y3E0)
inactive: erlotinib 0.033 | [1] 0.021 | [2] -0.023 | [3] 0.082 | [4] -0.024 | [5] 0.037 | [6] -0.007 | [7] -0.03 | [8] -0.011 | IRAK-1-4 Inhibitor I -0.006

GPI (UniProt P06744)
inactive: erlotinib -0.012 | [1] 0.014 | [2] 0.002 | [3] -0.026 | [4] -0.003 | [5] -0.014 | [6] 0.002 | [7] 0.008 | [8] 0.015

GMPR (UniProt P36959)
inactive: erlotinib -0.001 | [1] 0.028 | [2] 0.024 | [3] 0.051 | [4] 0.005 | [5] -0.015 | [6] 0.014 | [7] -0.001 | [8] 0.003 | IRAK-1-4 Inhibitor I 0.032

GOLGA7 (UniProt Q7Z5G4)
inactive: erlotinib -0.008 | [1] -0.073 | [2] -0.028 | [3] 0.051 | [4] -0.032 | [5] 0.04 | [6] 0.039 | [7] -0.043 | [8] 0.022 | IRAK-1-4 Inhibitor I 0.034

GPR89A (UniProt B7ZAQ6)
inactive: erlotinib 0.062 | [1] 0.02 | [2] -0.11 | [3] -0.098 | [4] 0.024 | [5] -0.037 | [6] -0.081 | [7] 0.061 | [8] -0.044 | IRAK-1-4 Inhibitor I 0.003

Retrieved one by one from the entries so far, two records:
GPR89A (UniProt B7ZAQ6)
inactive: erlotinib 0.062 | [1] 0.02 | [2] -0.11 | [3] -0.098 | [4] 0.024 | [5] -0.037 | [6] -0.081 | [7] 0.061 | [8] -0.044 | IRAK-1-4 Inhibitor I 0.003

GOLT1B (UniProt Q9Y3E0)
inactive: erlotinib 0.033 | [1] 0.021 | [2] -0.023 | [3] 0.082 | [4] -0.024 | [5] 0.037 | [6] -0.007 | [7] -0.03 | [8] -0.011 | IRAK-1-4 Inhibitor I -0.006

Next part.

GMEB1 (UniProt Q9Y692)
inactive: erlotinib -0.008 | [1] -0.083 | [2] -0.006 | [3] 0.018 | [4] 0.038 | [5] -0.003 | [6] 0.008 | [7] -0.028 | [8] 0.026 | IRAK-1-4 Inhibitor I -0.007

GGT7 (UniProt Q9UJ14)
inactive: erlotinib -0.04 | [1] 0.07 | [2] 0.021 | [3] -0.116 | [4] 0.094 | [5] -0.059 | [6] 0.018 | [7] 0.026 | [8] -0.023 | IRAK-1-4 Inhibitor I 0.027

GLUD1 (UniProt P00367)
inactive: erlotinib -0.016 | [1] 0.011 | [2] -0.018 | [3] -0.007 | [4] -0.029 | [5] -0.031 | [6] -0.006 | [7] -0.004 | [8] 0.014 | IRAK-1-4 Inhibitor I 0.024

GINS4 (UniProt Q9BRT9)
inactive: erlotinib 0.006 | [1] 0.018 | [2] 0.016 | [3] 0.047 | [4] -0.022 | [5] 0.011 | [6] 0.031 | [7] 0 | [8] 0.011 | IRAK-1-4 Inhibitor I -0.004

GPATCH4 isoform 3 (UniProt Q5T3I0)
inactive: erlotinib -0.064 | [1] -0.07 | [2] -0.038 | [3] 0.009 | [4] -0.039 | [5] -0.022 | [6] 0.052 | [7] 0.006 | [8] -0.022 | IRAK-1-4 Inhibitor I -0.008

GPA33 (UniProt Q99795)
inactive: erlotinib -0.014 | [1] 0.082 | [2] -0.002 | [3] -0.091 | [4] -0.032 | [5] -0.05 | [6] -0.151 | [7] 0.001 | [8] 0.046 | IRAK-1-4 Inhibitor I 0.024

GMEB2 (UniProt Q9UKD1)
inactive: erlotinib -0.018 | [1] -0.006 | [2] -0.127 | [3] -0.005 | [4] -0.041 | [5] -0.024 | [6] 0.06 | [7] -0.002 | [8] -0.031 | IRAK-1-4 Inhibitor I -0.013

GNAI3 (UniProt P08754)
inactive: erlotinib 0.058 | [1] 0.076 | [2] 0.011 | [3] 0.03 | [4] 0.034 | [5] 0.01 | [6] -0.001 | [7] 0.055 | [8] -0.007 | IRAK-1-4 Inhibitor I 0.013

GNG5 (UniProt P63218)
inactive: erlotinib 0.148 | [1] -0.002 | [2] 0 | [3] 0.004 | [4] -0.015 | [5] -0.056 | [6] 0.007 | [7] 0.026 | [8] 0.042 | IRAK-1-4 Inhibitor I -0.213

GLO1 (UniProt Q04760)
inactive: erlotinib -0.002 | [1] 0.03 | [2] 0.021 | [3] -0.03 | [4] 0.013 | [5] 0.021 | [6] 0.019 | [7] 0.016 | [8] 0.012 | IRAK-1-4 Inhibitor I 0.013

GOLGA3 (UniProt Q08378)
inactive: erlotinib 0.004 | [1] 0.032 | [2] 0.03 | [3] 0.022 | [4] -0.007 | [5] -0.004 | [6] 0.007 | [7] 0.012 | [8] 0.019 | IRAK-1-4 Inhibitor I 0.007

GLIPR2 (UniProt Q9H4G4)
inactive: erlotinib -0.04 | [1] 0.039 | [2] -0.002 | [3] 0.026 | [4] 0.013 | [5] -0.021 | [6] 0.061 | [7] -0.009 | [8] 0.113 | IRAK-1-4 Inhibitor I -0.101

GPN1 isoform 5 (UniProt Q9HCN4)
inactive: erlotinib -0.018 | [1] 0.051 | [2] 0.021 | [3] 0.024 | [4] 0.007 | [5] 0.036 | [6] 0.056 | [7] -0.014 | [8] 0.03 | IRAK-1-4 Inhibitor I 0.062

GPATCH8 (UniProt Q9UKJ3)
inactive: erlotinib -0.028 | [1] -0.083 | [2] 0.098 | [3] 0.067 | [4] -0.05 | [5] -0.018 | [6] -0.067 | [7] -0.053 | [8] -0.033 | IRAK-1-4 Inhibitor I 0.012

GOLGA6B (UniProt A6NDN3)
inactive: erlotinib 0.092 | [1] -0.061 | [2] -0.082 | [3] 0.033 | [4] 0.08 | [5] -0.013 | [6] -0.054 | [7] 0.011 | [8] 0.032 | IRAK-1-4 Inhibitor I -0.022

GPATCH11 (UniProt Q8N954)
inactive: erlotinib -0.048 | [1] 0.021 | [2] 0.025 | [3] 0.003 | [4] -0.025 | [5] 0.019 | [6] -0.005 | [7] 0.007 | [8] 0.121 | IRAK-1-4 Inhibitor I -0.014

GLB1 (UniProt P16278)
inactive: erlotinib 0.004 | [1] -0.027 | [2] 0.004 | [3] 0.039 | [4] -0.011 | [5] 0.016 | [6] -0.086 | [7] -0.003 | [8] 0.031 | IRAK-1-4 Inhibitor I 0.016

GOT1 (UniProt P17174)
inactive: erlotinib -0.007 | [1] -0.002 | [2] 0.007 | [3] -0.018 | [4] 0.006 | [5] 0.008 | [6] 0.018 | [7] 0.045 | [8] 0.015 | IRAK-1-4 Inhibitor I 0.022

GMPS (UniProt P49915)
inactive: erlotinib 0.014 | [1] -0.025 | [2] 0.004 | [3] 0.029 | [4] -0.013 | [5] -0.007 | [6] -0.009 | [7] -0.003 | [8] 0.017 | IRAK-1-4 Inhibitor I -0.004

GON4L (UniProt Q3T8J9)
inactive: erlotinib -0.003 | [1] 0.016 | [2] 0.061 | [3] -0.038 | [4] -0.074 | [5] 0.053 | [6] 0.057 | [7] 0.026 | [8] -0.052 | IRAK-1-4 Inhibitor I -0.039
